Test results reported in PubChem BioAssay AID2157 (National Center for Advancing Translational Sciences (NCATS), 2009).
The inconclusive results got no clear call from the source; some entries with a clear call stand among them for comparison. Potencies beside an inconclusive call are fits to weak or partial responses and may not hold up. The source made the active and inactive calls. Calls come from the whole dose curve; as a rule, active = well fitted inhibition curve with a large enough effect; inconclusive = small, poorly fitted or top-dose-only effect; inactive = no such curve, though single readings can be large or run the other way.

Protein sequences, listed by entry. Tags and fused reporters are not part of them. Lines headed by an entry give the natural chain unless they say otherwise; changes in a name come on top.
UniProt P16050: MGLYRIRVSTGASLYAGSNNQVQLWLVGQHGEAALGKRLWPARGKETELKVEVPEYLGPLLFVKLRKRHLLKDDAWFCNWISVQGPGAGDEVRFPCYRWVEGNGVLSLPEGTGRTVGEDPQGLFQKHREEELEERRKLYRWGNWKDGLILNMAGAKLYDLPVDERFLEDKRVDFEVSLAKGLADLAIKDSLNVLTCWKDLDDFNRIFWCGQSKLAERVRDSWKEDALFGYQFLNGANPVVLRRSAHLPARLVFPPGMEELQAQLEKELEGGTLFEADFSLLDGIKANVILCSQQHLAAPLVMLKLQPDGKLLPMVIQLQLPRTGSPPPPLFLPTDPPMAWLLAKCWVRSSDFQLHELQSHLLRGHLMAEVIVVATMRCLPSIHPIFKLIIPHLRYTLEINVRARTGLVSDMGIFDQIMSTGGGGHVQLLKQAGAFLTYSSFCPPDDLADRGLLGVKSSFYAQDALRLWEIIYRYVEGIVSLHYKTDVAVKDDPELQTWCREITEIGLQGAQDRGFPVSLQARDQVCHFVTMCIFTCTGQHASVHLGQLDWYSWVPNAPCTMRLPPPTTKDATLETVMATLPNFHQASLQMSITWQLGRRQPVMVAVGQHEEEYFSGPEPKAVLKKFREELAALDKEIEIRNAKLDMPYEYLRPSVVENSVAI

molecular target: Polyunsaturated fatty acid lipoxygenase ALOX15 (Homo sapiens) (UniProt P16050); experiment: Confirmation qHTS Assay for Inhibitors of 15-hLO (15-human lipoxygenase); conditions: purified enzyme, xylenol orange hydroperoxide absorbance; max response: active compounds read low
Description: Assay Provider: Holman, T.R., University of California, Santa Cruz Screening Center PI: Austin, Christopher P. Screening Center: NIH Chemical Genomics Center Human lipoxygenase 15hLO-1 is a member of the closely related lipoxygenase family of enzymes which catalyze the site-specific oxidation of arachidonic acid to various hormone precursor molecules and as such is a candidate for drug development in a variety of disease areas, such as cancer and inflammation. Inhibition of 15hLO-1 activity was screened by utilizing arachidonic acid as a substrate. The extent of hydroperoxide product formation was measured by a secondary chromogenic reaction in which xylenol orange (XO, Sigma-Aldrich, cat. number 39,818-7) reacts with the ferric ions produced from the reaction between the hydroperoxide and ferrous ions. The Fe(III)-XO complex is characterized with red-shifted absorbance at 560 nm. A purified preparation of human 15hLO-1 was supplied by Professor Ted Holman, University of California, Santa Cruz. This assay includes some confirmation and follow-up compounds for related primary screening assay AID 887.
Assay Protocol: Buffer: 25 mM Hepes pH 7.5, 0.01% Triton X-100. Reagents/Controls: Buffer in columns 3 and 4 as negative control (no enzyme). Substrate solution: 50 uM arachidonic acid (Sigma-Aldrich, St. Louis, MO) final concentration dispensed throughout the plate. Enzyme: 40 nM 15hLO-1 final concentration in columns 1, 2, 5-48. Column 1 is neutral (100% activity). Column 2 contained pin-transferred titration of NDGA (nordihidroguaiaretic acid, Sigma-Aldrich, N 5023, top concentration 10 mM in DMSO, then 1:2 dilution in duplicate). (Dilution factor: 23 nL into 4 uL.) Chromogenic detection reagent (divalent iron/xylenol orange, Fe-XO): 200 uM xylenol orange plus 300 uM ferrous ammonium sulfate prepared freshly in 50 mM sulfuric acid. Assay Steps: Three uL of enzyme were dispensed to 1536-well Greiner black clear bottom plates. Compounds and controls (23 nL) were transferred via Kalypsys PinTool. The plates were incubated for 15 min at room temperature, and then 1 uL of substrate solution was added to start the reaction. After room temperature incubation for 6 minutes, 4 uL of Fe-XO solution was added to each well followed by a short spin (1000 rpm, 15 sec) and the plates were then incubated for 30 min. The absorbance at 405 and 573 nm were measured using ViewLux (Perkin-Elmer) High-throughput CCD imager and absorbance protocol settings. The 573-to-405 absorbance ratio was used to compute reaction progress.

Row | SMILES | Potency | max response
1 | Nc1cc(-c2ccncc2)c[nH]c1=O | inconclusive: 11.2 µM [inhibitor, full curve, poor fit] | –
2 | COc1cccc(-c2nccc(NCc3ccccc3OC)n2)c1 | active: 11.2 µM | –
3 | COc1ccc(NC(=O)CSc2nc(O)cc(=O)n2-c2ccccc2OC)cc1 | – | inactive: -13.4%
4 | OC1(c2cccc(C(F)(F)F)c2)CCN(c2ncnc3c2[nH]c2ccc(F)cc23)CC1 | inconclusive: 12.6 µM [inhibitor, full curve, poor fit] | –
5 | Oc1ccc(CNc2ccccc2)c2cccnc12 | inconclusive: 5.62 µM [inhibitor, full curve, poor fit] | –
6 | CCCCn1c(NC(C)=O)c(C#N)c2nc3ccccc3nc21 | inconclusive: 12.6 µM [inhibitor, partial curve, poor fit] | –
7 | Clc1ccc(NNc2ccnc3cc(Cl)ccc23)cc1 | – | inactive: -9.48%
8 | c1csc(C2Nc3cccc4cccc(c34)N2)c1 | active: 8.91 µM | –
9 | CCOc1cc(-c2cc(-c3ccc(N)cc3)nc(N)c2C#N)ccc1O | inconclusive: 14.1 µM [inhibitor, partial curve, poor fit] | –
10 | Cc1c(N/C=C/C(=O)c2cccs2)c(=O)n(-c2ccccc2)n1C | – | inactive: -25.2%
11 | O=C(Nc1nnc(-c2ccccc2)o1)c1ccc(Cl)cc1 | – | inactive: -12.7%
12 | O=C(CC1C(=O)N(c2ccc(Cl)cc2)C(=S)N1CCc1ccncc1)Nc1ccc(F)cc1 (stereo not given) | inconclusive: 14.1 µM [inhibitor, partial curve, poor fit] | –
13 | N=c1c(C(=O)NC2CCCC2)cc2c(=O)n3ccccc3nc2n1C1CCCC1 | inconclusive: 31.6 µM [inhibitor, partial curve, poor fit] | –
14 | O=C(O)CCc1ccc(-c2ccccc2)n1-c1cccc(O)c1 | inconclusive: 8.91 µM [inhibitor, partial curve, poor fit] | –
15 | O=c1c(-c2ccc3c(c2)OCCO3)coc2cc(O)cc(O)c12 | inconclusive: 14.1 µM [inhibitor, partial curve, poor fit] | –
16 | CC1=CC(C)(C)Nc2ccc(OC(=O)CN3C(=O)c4cccc5cccc(c45)C3=O)cc21 | inconclusive: 14.1 µM [inhibitor, partial curve, poor fit] | –
17 | CCOC(=O)c1c(NC(=O)CN2CCOCC2)sc2c1CCCC2 | active: 31.6 µM | –
18 | Clc1ccc(-c2nnc(C3CCCCC3)o2)cc1 | – | inactive: -10.3%
19 | Cc1csc(-c2coc3cc(O)cc(C)c3c2=O)n1 | inconclusive: 28.2 µM [inhibitor, partial curve, poor fit] | –
20 | CCCC(=O)NC(c1ccco1)c1cc(Cl)c2cccnc2c1O (stereo not given) | – | inactive: -17.9%
21 | COc1ccc(C(C[N+](=O)[O-])c2c(-c3ccccc3)cc3ccccn23)c(OC)c1 (stereo not given) | inconclusive: 8.91 µM [inhibitor, full curve, poor fit] | –
22 | CC(=O)[C@@H]1[C@@H]2C(=O)N(Cc3ccccc3)C(=O)[C@@H]2C2c3ccccc3C=CN21 (stereo not given in full) | inconclusive: 25.1 µM [inhibitor, partial curve] | –
23 | COc1ccccc1-n1c(SCC(=O)Nc2ccc(C)cc2)nc(O)cc1=O | – | inactive: -8.11%
24 | Cc1cc(/C=N/NC(=O)Cn2c3ccccc3c(=O)c3ccccc32)c(C)n1-c1ccccc1 | active: 11.2 µM | –
25 | CC1=NOC(=O)/C1=C\c1ccc(-c2cccc(Cl)c2)o1 | inconclusive: 3.55 µM [inhibitor, full curve] | –

Entries of single compounds as entered above. Values in the order: Potency	max response
O=c1c(-c2ccc3c(c2)OCCO3)coc2cc(O)cc(O)c12 reads inconclusive: 14.1 µM [inhibitor, partial curve, poor fit]	–
Cc1c(N/C=C/C(=O)c2cccs2)c(=O)n(-c2ccccc2)n1C reads –	inactive: -25.2%
